Measured values: PMC11518377
Numbering of substitutions follows the chain as printed. Names may count otherwise. These are yes or no findings as the source states them, for the method shown. Some results given as binding are weak or reduced against the parent protein; the word gives no strength. One block for each binder: values may come before it.

Legend:
Experiment in all cases: two-hybrid; LexA DNA-binding domain (pMM5) and Gal4 activation domain (pMM6) fusions in strain SGY37-VIII,3 (lexA-op-LacZ); drops on agar plates overlaid with soft agar, blue colour read; also done in bfa1Δ and bud14Δ backgrounds
[1] = target: T1, Bud14-F379A (S. cerevisiae (budding yeast)) (UniProt P27637)
T1 sequence: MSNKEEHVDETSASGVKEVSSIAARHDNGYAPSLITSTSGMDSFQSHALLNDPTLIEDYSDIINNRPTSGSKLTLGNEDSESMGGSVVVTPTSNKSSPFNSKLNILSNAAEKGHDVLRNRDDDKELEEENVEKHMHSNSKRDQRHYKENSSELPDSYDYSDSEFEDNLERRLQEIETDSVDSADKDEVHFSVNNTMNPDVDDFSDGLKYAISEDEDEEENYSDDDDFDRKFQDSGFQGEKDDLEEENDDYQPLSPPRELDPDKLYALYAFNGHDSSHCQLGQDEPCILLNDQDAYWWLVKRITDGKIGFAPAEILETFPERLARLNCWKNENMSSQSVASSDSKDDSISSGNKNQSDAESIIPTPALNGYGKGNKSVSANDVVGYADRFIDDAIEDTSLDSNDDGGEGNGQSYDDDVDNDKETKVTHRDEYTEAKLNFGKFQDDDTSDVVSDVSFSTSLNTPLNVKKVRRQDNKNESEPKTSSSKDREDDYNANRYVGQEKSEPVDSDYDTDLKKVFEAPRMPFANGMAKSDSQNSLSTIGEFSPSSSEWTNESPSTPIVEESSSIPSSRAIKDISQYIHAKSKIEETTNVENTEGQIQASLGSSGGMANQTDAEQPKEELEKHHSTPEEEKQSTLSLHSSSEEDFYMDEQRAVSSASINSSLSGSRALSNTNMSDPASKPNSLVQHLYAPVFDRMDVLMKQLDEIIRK

[2] = target: T2, Bfa1 (S. cerevisiae (budding yeast)) (UniProt P47113)
T2 sequence: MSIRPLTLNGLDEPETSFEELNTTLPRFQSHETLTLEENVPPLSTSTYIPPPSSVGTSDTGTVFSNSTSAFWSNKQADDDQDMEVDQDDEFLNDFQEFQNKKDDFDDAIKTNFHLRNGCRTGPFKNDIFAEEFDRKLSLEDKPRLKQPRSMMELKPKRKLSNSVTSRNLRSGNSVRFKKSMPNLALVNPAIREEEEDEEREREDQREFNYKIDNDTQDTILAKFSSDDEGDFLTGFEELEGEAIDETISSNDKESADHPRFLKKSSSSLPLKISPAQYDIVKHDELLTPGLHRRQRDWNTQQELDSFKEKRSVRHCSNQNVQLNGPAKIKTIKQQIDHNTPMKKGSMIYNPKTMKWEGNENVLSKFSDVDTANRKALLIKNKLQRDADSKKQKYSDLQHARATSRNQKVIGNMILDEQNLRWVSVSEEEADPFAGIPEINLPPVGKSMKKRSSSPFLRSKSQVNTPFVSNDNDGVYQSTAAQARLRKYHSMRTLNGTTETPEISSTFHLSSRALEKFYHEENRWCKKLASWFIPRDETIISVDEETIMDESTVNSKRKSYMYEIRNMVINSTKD

[3] = target: T3, Bud14 (S. cerevisiae (budding yeast)) (UniProt P27637)
T3 sequence: T1 sequence with A379F

- binding [1]: binds
- binding [2]: binds
B1: Cdc14 (enzyme, UniProt Q00684 1-551)
chain: MRRSVYLDNTIEFLRGRVYLGAYDYTPEDTDELVFFTVEDAIFYNSFHLDFGPMNIGHLYRFAVIFHEILNDPENANKAVVFYSSASTRQRANAACMLCCYMILVQAWTPHQVLQPLAQVDPPFMPFRDAGYSNADFEITIQDVVYGVWRAKEKGLIDLHSFNLESYEKYEHVEFGDFNVLTPDFIAFASPQEDHPKGYLATKSSHLNQPFKSVLNFFANNNVQLVVRLNSHLYNKKHFEDIGIQHLDLIFEDGTCPDLSIVKNFVGAAETIIKRGGKIAVHCKAGLGRTGCLIGAHLIYTYGFTANECIGFLRFIRPGMVVGPQQHWLYLHQNDFREWKYTTRISLKPSEAIGGLYPLISLEEYRLQKKKLKDDKRVAQNNIEGELRDLTMTPPSNGHGALSARNSSQPSTANNGSNSFKSSAVPQTSPGQPRKGQNGSNTIEDINNNRNPTSHANRKVVIESNNSDDESMQDTNGTSNHYPKVSRKKNDISSASSSRMEDNEPSATNINNAADDTILRQLLPKNRRVTSGRRTTSAAGGIRKISGSIKK

- binding [3]: binds
B2: Cdc14-C283S (enzyme, UniProt Q00684 1-551)
chain: B1 chain with C283S
